The target in the assay is T1, GFP-dynamin I (UniProt Q05193).
T1 sequence: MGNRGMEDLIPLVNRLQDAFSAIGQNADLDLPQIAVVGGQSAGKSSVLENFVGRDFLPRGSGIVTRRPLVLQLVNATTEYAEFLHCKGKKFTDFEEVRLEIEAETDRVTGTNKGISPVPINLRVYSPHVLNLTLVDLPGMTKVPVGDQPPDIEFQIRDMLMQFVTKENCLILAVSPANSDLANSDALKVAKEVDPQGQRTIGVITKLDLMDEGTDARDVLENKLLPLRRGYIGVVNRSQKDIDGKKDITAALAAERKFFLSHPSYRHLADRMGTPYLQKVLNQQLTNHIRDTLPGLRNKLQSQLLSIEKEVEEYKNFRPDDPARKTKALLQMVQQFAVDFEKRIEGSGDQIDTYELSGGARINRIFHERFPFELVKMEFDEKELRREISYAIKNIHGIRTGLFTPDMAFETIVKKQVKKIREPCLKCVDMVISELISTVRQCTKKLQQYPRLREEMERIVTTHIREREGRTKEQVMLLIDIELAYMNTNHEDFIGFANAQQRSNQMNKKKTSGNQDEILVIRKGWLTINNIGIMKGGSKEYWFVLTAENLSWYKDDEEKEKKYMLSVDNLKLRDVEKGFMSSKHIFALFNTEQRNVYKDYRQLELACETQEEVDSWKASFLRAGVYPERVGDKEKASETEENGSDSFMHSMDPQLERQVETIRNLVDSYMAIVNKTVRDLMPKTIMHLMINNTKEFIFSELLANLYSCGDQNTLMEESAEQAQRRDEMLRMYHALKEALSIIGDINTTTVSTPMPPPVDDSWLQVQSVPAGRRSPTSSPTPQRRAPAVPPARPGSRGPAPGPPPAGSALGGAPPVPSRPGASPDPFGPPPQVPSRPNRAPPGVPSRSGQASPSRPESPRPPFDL
The assay is described as follows: co-IP; Cos7 cells co-transfected with GFP-dynamin I and wild-type or mutant Myc-p130Cas, 24 h; lysis in modified RIPA buffer (50 mM Tris-HCl pH 7.4, 150 mM NaCl, 1% NP-40, 0.25% sodium deoxycholate); immunoprecipitation with anti-GFP, immunoblot with anti-Myc. (In western blotting, separated proteins are transferred to a membrane and probed.)

Results are given in words; binding and its absence hold for the method and conditions named. In cells and extracts the contact can be indirect. Some results given as binding are weak or reduced against the parent protein; the word gives no strength. Sequences can lack the tags named with a protein.

B1: Myc-tagged p130Cas, wild type (protein, UniProt Q63767 1-968)
chain: MKYLVSVGAGPARRAGGLEDVSWGPRVSRRPQSYRAARHVNESLPRSAFRVPAAHGASVTPSAALGSGLPETQPEAVCRGTEKPRFAEGCKPAASRDKNVLAKALYDNVAESPDELSFRKGDIMTVLERDTQGLDGWWLCSLHGRQGIVPGNRLKILVGMYDKKPAAPGPGPPATPPQPQPSLPQGVHTPVPPASQYSPMLPTAYQPQPDNVYLVPTPSKTQQGLYQAPGPNPQFQSPPAKQTSTFSKQTPHHSFPSPATDLYQVPPGPGSPAQDIYQVPPSAGTGHDIYQVPPSLDTRSWEGTKPPAKVVVPTRVGQGYVYEASQAEQDEYDTPRHLLAPGSQDIYDVPPVRGLLPNQYGQEVYDTPPMAVKGPNGRDPLLDVYDVPPSVEKGLPPSNHHSVYDVPPSVSKDVPDGPLLREETYDVPPAFAKPKPFDPTRHPLILAAPPPDSPPAEDVYDVPPPAPDLYDVPPGLRRPGPGTLYDVPRERVLPPEVADGSVIDDGVYAVPPPAEREAPTDGKRLSASSTGSTRSSQSASSLEVVVPGREPLELEVAVETLARLQQGVSTTVAHLLDLVGSASGPGGWRSTSEPQEPPVQDLKAAVAAVHGAVHELLEFARSAVSSATHTSDRTLHAKLSRQLQKMEDVYQTLVVHGQVLDSGRGGPGFTLDDLDRLVACSRAVPEDAKQLASFLHGNASLLFRRTKAPGPGPEGSSSLHLNPTDKASSIQSRPLPSPPKFTSQDSPDGQYENSEGGWMEDYDYVHLQGKEEFEKTQKELLEKGNIVRQGKGQLELQQLKQFERLEQEVSRPIDHDLANWTPAQPLVPGRTGGLGPSDRQLLLFYLEQCEANLTTLTDAVDAFFTAVATNQPPKIFVAHSKFVILSAHKLVFIGDTLSRQAKAADVRSKVTHYSNLLCDLLRGIVATTKAAALQYPSPSAAQDMVDRVKELGHSTQQFRRVLGQLAAA
B1: the binding result is “binds”.

For the origin of these results see paper PMC3097230.
